Data on one molecule can be found in publication PMC12363165.

Protein sequences, listed by entry. Tags and fused reporters are not part of them.
UniProt P05923: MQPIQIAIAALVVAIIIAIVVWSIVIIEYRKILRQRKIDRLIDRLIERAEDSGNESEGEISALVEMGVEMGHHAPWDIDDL

Results are given in words; binding and its absence hold for the method and conditions named. In cells and extracts the contact can be indirect. These calls come from enrichment with a bait or labelling near it, and not all partners need be listed.

Assay [1] concerns the target Vpu-V5-APEX2 (HIV-1 viral protein U fused to a V5-APEX2 tag) (HIV-1) (UniProt P05923). The assay is described as follows: affinity purification with mass spectrometry; HeLa cells transfected with Vpu-APEX2 or APEX2-NES, 48 h; Pierce IP lysis buffer; anti-V5 magnetic beads 2 h at 4 C; washes 50 mM Tris-HCl pH 7.5, 150 mM NaCl, 0.05% NP-40; gel, trypsin, mass spectrometry; hits Log2FC > 2, score > 3.

Assay [2] has the same target. The assay is described as follows: proximity labelling; APEX2 labelling in HeLa cells transfected with Vpu-APEX2 (control APEX2-NES); biotinyl tyramide 30 min, 1 mM H2O2 1 min; streptavidin beads, on-bead digestion, label-free quantitative mass spectrometry; hits Log2FC > 2, P < 0.05.

B1: FAR1, endogenous (protein, UniProt Q8WVX9 1-515)
chain: MVSIPEYYEGKNVLLTGATGFLGKVLLEKLLRSCPKVNSVYVLVRQKAGQTPQERVEEVLSGKLFDRLRDENPDFREKIIAINSELTQPKLALSEEDKEVIIDSTNIIFHCAATVRFNENLRDAVQLNVIATRQLILLAQQMKNLEVFMHVSTAYAYCNRKHIDEVVYPPPVDPKKLIDSLEWMDDGLVNDITPKLIGDRPNTYIYTKALAEYVVQQEGAKLNVAIVRPSIVGASWKEPFPGWIDNFNGPSGLFIAAGKGILRTIRASNNALADLVPVDVVVNMSLAAAWYSGVNRPRNIMVYNCTTGSTNPFHWGEVEYHVISTFKRNPLEQAFRRPNVNLTSNHLLYHYWIAVSHKAPAFLYDIYLRMTGRSPRMMKTITRLHKAMVFLEYFTSNSWVWNTENVNMLMNQLNPEDKKTFNIDVRQLHWAEYIENYCLGTKKYVLNEEMSGLPAARKHLNKLRNIRYGFNTILVILIWRIFIARSQMARNIWYFVVSLCYKFLSYFRASSTMRY
On to B1, for which the binding result in assay [1] and in assay [2] was “binds” each time.
